Data source: PubChem BioAssay AID1259308 (NCATS, 2017)
Shown is a random part of about 59,000 reagents tested. About 1,510 of them (2.6%) were called active. 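Calls use total luciferase alone and ignore viability, so some active siRNAs may act by altering cell number.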 Entries without a mark were called inactive. The numbers tell different reagents against one gene apart. Not all columns of the deposit are shown.

Assay: 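Candidate targets for better recombinant protein yield in mammalian cells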 (primary screen)
System: human HEK293 embryonic kidney cells stably expressing firefly luciferase (HEK-CMV-Luc2-Hygro)
Reagents: single siRNA against human genes, 0.8 pmol siRNA per well
Timing: 72 h
Measured: 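Reporter luminescence and viable-cell signal on separate replicate plates, given as percent of non-targeting control and median/MAD z-scores, plus per-cell luciferase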
Reading the numbers: total luciferase, z-score and total luciferase, % of control: higher = more reporter protein produced
Active means: 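An siRNA counts as active if its total luciferase robust z-score exceeds 3; genes with two or more such siRNAs out of three were retested with fresh siRNAs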
Calls: active = raised luciferase; inactive = no rise

| Gene | siRNA no. | total luciferase, z-score | total luciferase, % of control |
| --- | --- | --- | --- |
| UBE2S | 1 | -1.2 | 57.9 |
| UBE2S | 2 | -0.118 | 79.5 |
| UBE2S | 3 | -0.849 | 65 |
| WDFY2 | 1 | 1.39 | 110 |
| WDFY2 | 2 | 0.245 | 86.8 |
| WDFY2 | 3 | -0.289 | 76.1 |
| BRD9 | 1 | -0.238 | 77.1 |
| BRD9 | 2 | -0.585 | 70.3 |
| BRD9 | 3 | 0.718 | 96.2 |
| FAM184B | 1 | -1.3 | 56.1 |
| FAM184B | 2 | 0.406 | 90 |
| FAM184B | 3 | -0.358 | 74.8 |
| DMXL2 | 1 | -0.525 | 71.4 |
| DMXL2 | 2 | 1.08 | 103 |
| DMXL2 | 3 | 0.659 | 95 |
| B3GLCT | 1 | 0.535 | 92.5 |
| B3GLCT | 2 | -0.109 | 79.7 |
| B3GLCT | 3 | 2.99 | 141 |
| FAM53C | 1 | -0.931 | 63.4 |
| FAM53C | 2 | 1.87 | 119 |
| FAM53C | 3 | 2.31 | 128 |
| MARVELD3 | 1 | 4.53 (active) | 172 |
| MARVELD3 | 2 | 1.8 | 118 |
| MARVELD3 | 3 | 0.157 | 85 |
| ZNF709 | 1 | 2.58 | 133 |
| ZNF709 | 2 | 3.04 (active) | 142 |
| ZNF709 | 3 | 1.16 | 105 |
| EDN1 | 1 | 0.151 | 84.9 |
| EDN1 | 2 | 0.012 | 82.1 |
| EDN1 | 3 | -1.5 | 52.1 |
| UQCC2 | 1 | 0.617 | 94.2 |
| UQCC2 | 2 | 1.54 | 112 |
| UQCC2 | 3 | -0.268 | 76.5 |
| VARS2 | 1 | 0.191 | 85.7 |
| VARS2 | 2 | 1 | 102 |
| VARS2 | 3 | 0.674 | 95.3 |
| DMRTA1 | 1 | -0.528 | 71.4 |
| DMRTA1 | 2 | -0.171 | 78.5 |
| DMRTA1 | 3 | -0.00694 | 81.7 |
